Where a name gives a salt, the structure may show the parent alone. The whole screen tested about 5,300 compounds, of which about 130 (2.5%) showed an effect of 50% or more. The list shows a part of the results.

The test has as its system M. mycetomatis strain mm55. The conditions noted are these: primary screen, metabolic activity vs growth control; 96 h, 2 µM; inhibitor.
On to `O=C(c1ccc2c(c1)OCO2)N1CCCCC1` [ONC0004313, cx516], for which the “% viability” value stood at 122.2%.
The value for `Cc1ccccc1C(=O)c1ccc(Nc2ccc(Br)cc2N)cc1Cl` [ONC0003160, eo1428] was 75.19%.
Take `CCCCOC(=O)c1ccccc1Nc1cccc(C(F)(F)F)c1` [ONC0000312, ufenamate]: the “% viability” value was found to be 75.77%.
As to `CC1(C)CCC[C@]2(C)[C@H]3CC(=O)O[C@]3(C)CC[C@@H]12` [ONC0004742, sclareolide norambreinolide], the “% viability” value came to 126.3%.
Regarding `COc1ccc(C(=O)c2ccccc2)c(O)c1` [ONC0000578, 2hydroxy4methoxybenzophenone], the “% viability” value is reported as 73.27%.
Take `COc1c(N2C[C@@H]3CCCN[C@@H]3C2)c(F)cc2c(=O)c(C(=O)O)cn(C3CC3)c12` [ONC0004240, moxifloxacin hydrochloride]: the “% viability” value is on record as 59.73%.
`O=C(Oc1ccccc1)c1ccccc1O` [ONC0003738, phenylsalicylate]: the “% viability” value came out at 110.3%.
For the compound `c1ccc(C(O[C@@H]2CCCN(CCc3ccc4c(c3)OCO4)C2)c2ccccc2)cc1` [ONC0003094, zamifenacin], the “% viability” value came out at 77.83%.
For `CC1C[C@H]2[C@@H]3CCC4=CC(=O)C=C[C@]4(C)[C@@]3(Cl)[C@@H](O)C[C@]2(C)[C@@]1(O)C(=O)CO` (stereo partly drawn) [ONC0000301, beclomethasone], the “% viability” value was 73.26%.
The value for `Nc1nc2cc(-c3ccc4ncc(C(=O)N5CCOCC5)n4c3)ccc2o1` [ONC0002420, serabelisib] was 110%; that for `CC(=O)OCC(=O)[C@@]1(O)[C@H](C)C[C@H]2[C@@H]3CCC4=CC(=O)C=C[C@]4(C)[C@@]3(F)[C@@H](O)C[C@@]21C` [ONC0000405, dexamethasone acetate] was 56.97%.
Consider `COc1ncnc(NS(=O)(=O)c2ccc(N)cc2)c1OC` [ONC0005402, sulfadoxine], for which the “% viability” value was determined as 115.4%.
In the case of `OC[C@H]1O[C@@H](n2cnc3c(N[C@H]4CCC[C@@H]4O)ncnc32)[C@H](O)[C@@H]1O` [ONC0001633, gr79236], the “% viability” value was 111%.
The same measure for `NS(=O)(=O)c1cc2c(cc1C(F)(F)F)NCNS2(=O)=O` [ONC0000565, hydroflumethiazide]: 64.98%; for `Cc1ncc(-c2ccnc(Nc3ccc(S(C)(=O)=O)cc3)n2)n1C(C)C` [ONC0004311, azd5438]: 78.2%.
The same measure for `COC1(C2=NCCN2)COc2ccccc2O1` (stereo not drawn) [ONC0001691, rx821002]: 76.36%; for `C#Cc1cnc2nc(O)n(C(CC)CC)c2n1` [ONC0001165, tirasemtiv]: 102.8%; for `NC(=O)CCCCC1CCSS1` (stereo not drawn) [ONC0004048, lipoamide]: 65.99%.
The same measure for `CCCCCCCC/C=C\CCCCCCCC(N)=O` [ONC0000742, oleamide]: 75.94%.
Consider `COc1ccccc1N1CCN(CCCCNC(=O)c2ccc(-c3ccc(C(C)=O)cc3)cc2)CC1` [ONC0003432, gr 103691], for which the “% viability” value is 60.78%.
As for `N[C@@H](Cc1c[nH]c2ccccc12)C(=O)O` [ONC0003218, tryptophan l], the “% viability” value was 86.81%.
Regarding `O=C(OOC(=O)c1ccccc1)c1ccccc1` [ONC0003111, benzoyl peroxide], the “% viability” value is 80.87%.
`O=C(O)c1nc(=O)[nH]c(=O)[nH]1` [ONC0003278, oxonic acid potassium salt]: the “% viability” value turned out to be 68.48%.
The same measure for `NCCCC[C@H](N)C(=O)O` [ONC0002175, llysine]: 93.09%.
Turning to `CC(O)Cn1cnc2c1c(=O)n(C)c(=O)n2C` (stereo not drawn) [ONC0003979, proxyphylline], the “% viability” value is given as 87.7%.
The value for `CCCCCCCCCC(=O)OC1(c2ccc(Cl)cc2)CCN(CCCC(=O)c2ccc(F)cc2)CC1` [ONC0001977, haloperidoldecanoate] was 86.06%; that for `CN1CC[C@@H](NC(=O)Nc2ccc(C#N)cc2)C[C@@H]1c1nc2ccccc2[nH]1` [ONC0001162, glasdegib] was 66.04%; that for `OCc1c[nH]c2ccccc12` [ONC0002801, indole3carbinol] was 98.39%.
In the case of `Cc1ccc(C(=O)Nc2ccc(Oc3cc4cnn(C)c4cc3-c3cn[nH]c3)c(F)c2)c(=O)n1-c1ccc(F)cc1` [ONC0002048, merestinib], the “% viability” value was determined as 73.93%.
As to `N#CCNC(=O)c1ccc(-c2ccnc(Nc3ccc(N4CCOCC4)cc3)n2)cc1` [ONC0004993, momelotinib cyt387], the “% viability” value is 102.1%.
For the compound `COC(=O)C1=C(C)NC(C)=C([N+](=O)[O-])[C@H]1c1ccccc1C(F)(F)F` [ONC0001649, bayk8644s], the “% viability” value came out at 97.3%.
Take `CS(=O)(=O)OCCCCOS(C)(=O)=O` [ONC0003245, busulfan]: the “% viability” value is recorded as 72.69%.
For the compound `CCCCCCCCC(=O)NCc1cc(OC)c(O)cc1I` [ONC0002482, 6iodonordihydrocapsaicin], the “% viability” value stood at 59.24%.
The value for `O=C(/C=C/c1ccc(O)cc1)c1ccc(O)cc1O` [ONC0005030, isoliquiritigenin] was 109.3%.
The same measure for `N#Cc1ccc(-c2csc(NN=C3CCCC3)n2)cc1` [ONC0001251, remodelin]: 96.62%; for `Cc1c(NC(=O)c2cccnc2)c(=O)n(-c2ccccc2)n1C` [ONC0002863, nifenazone]: 118%; for `N[C@@H](Cn1oc(=O)[nH]c1=O)C(=O)O` [ONC0003612, lquisqualicacid]: 65.05%.
With `COCCOCCOc1ccc(C2=N[C@@](C)(C(=O)O)CS2)c(O)c1` [ONC0001255, sp420], the “% viability” value is 62.06%.
On to `CN1CCN(CCCCN2C(=O)CN(/N=C/c3ccc(-c4ccc(Cl)cc4)o3)C2=O)CC1` [ONC0001074, azimilide dihydrochloride], for which the “% viability” value is given as 80.91%.
In the case of `CC[C@@H]1C(=O)OC[C@@H]1Cc1cncn1C` [ONC0000470, pilocarpine nitrate], the “% viability” value amounted to 105.7%.
For `CN(C)C(=O)c1ccc(S(=O)(=O)c2ccc(NC(=O)C(C)(O)C(F)(F)F)c(Cl)c2)cc1` (stereo not drawn) [ONC0005136, azd7545], the “% viability” value amounted to 97.4%.
On to `O=c1c(-n2ccnn2)c[nH]n1-c1cc(N2CCOCC2)ncn1` [ONC0000977, molidustat], for which the “% viability” value was 87.14%.

The record behind these values is paper PMC12670160, “A drug-repurposing screen of FDA- and EMA-approved drugs identifies two NF-κB inhibitors active against eumycetoma” (Journal of Antimicrobial Chemotherapy, 2025).
